PubChem BioAssay AID504784 – Drosophila RNAi Screening Center – 2011
Aim: 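Fly genes whose silencing alters how much lipid cells keep in droplets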 (primary screen). Cells: Drosophila Kc167 embryonic cells. Reagent: long dsRNA against Drosophila genes, about 250 ng dsRNA per well. Timing: 4 days. Treatment: cells fed 400 µM oleic acid bound to BSA. Read-out: 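Cells imaged and segmented; ratio of lipid droplet area to nuclear area, log-transformed, then normalised as a B-score over the screen; higher means more stored lipid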. Reading the numbers: droplet/nuclear area B-score: higher = more stored lipid (overstorage).
The deposit covers about 17,000 reagents; below is a random part of those with a known target gene and a result. 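Each column is one replicate's B-score; the combined score over replicates was not deposited, so single values may mislead.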 A plus sign joins genes that one reagent is predicted to hit. Reagent sequences are not shown.

| gene knocked down | DRSC id | droplet/nuclear area B-score, replicate 1 | droplet/nuclear area B-score, replicate 2 | droplet/nuclear area B-score, replicate 3 |
| --- | --- | --- | --- | --- |
| CG33060 | DRSC09939 | 0.481 | 1.19 | – |
| CG13386 | DRSC02260 | -0.123 | 0.924 | – |
| Lztr1 | DRSC18176 | -0.456 | -0.343 | – |
| Lztr1 | DRSC18647 | 0.743 | -0.265 | – |
| CG11164 | DRSC19392 | 0.131 | -0.164 | -1.54 |
| CG7514 | DRSC08597 | -0.682 | 0.342 | – |
| Mrtf | DRSC08263 | 0.0158 | -0.0576 | – |
| Mrtf | DRSC08410 | 0.693 | 0.468 | – |
| Mrtf | DRSC08411 | -0.478 | 0.749 | – |
| Mrtf | DRSC23194 | -0.042 | 0.529 | – |
| Pex16 | DRSC11750 | 0.582 | -2.03 | 1.29 |
| tbrd-3 | DRSC04295 | 1.73 | -1.23 | – |
| heix | DRSC03542 | -0.88 | 0.885 | – |
| CG11106 | DRSC19381 | 0.0349 | -2.39 | 0.359 |
| dmrt99B | DRSC15045 | 0.465 | 1.15 | – |
| dmrt99B | DRSC22977 | 1.79 | 1.34 | – |
| AlaRS-m | DRSC09660 | -0.157 | -1.44 | – |
| snz | DRSC17969 | -0.238 | -0.249 | – |
| CheB42a | DRSC22881 | 0.902 | -0.826 | – |
| CG31705 | DRSC01991 | -1.04 | 0.564 | – |
| Rop | DRSC08693 | 0.0296 | 0.928 | – |
| flw | DRSC17992 | -0.276 | -0.39 | 0.427 |
| flw | DRSC18774 | -0.448 | 0.0184 | -1.56 |
| CG31036 | DRSC15055 | 0.222 | -2.16 | – |
| CG31036 | DRSC15057 | -1.52 | 3.73 | – |
| tws | DRSC12767 | -0.716 | -2.94 | – |
| tws | DRSC17092 | 8.34 | -0.0464 | – |
| CG15432 | DRSC00447 | 1.02 | -0.0682 | – |
| Pef | DRSC06695 | -1.14 | -1.38 | – |
| T3dh + pgc | DRSC04659 | -0.0196 | 1.19 | – |
| crm | DRSC18754 | -2.29 | 0.688 | 2.73 |
| eRF3 | DRSC03322 | -2.22 | -0.752 | – |
| CG13937 | DRSC08406 | -0.664 | 0.568 | – |
| CG14546 | DRSC14890 | 0.681 | 1.32 | – |
| CG31730 | DRSC01308 | 0.468 | 0.796 | – |
| CG31680 | DRSC21878 | 5.82 | 0.693 | – |
| Nrx-IV | DRSC11238 | -0.621 | 0.356 | – |
| Ras64B | DRSC08689 | -0.982 | 1.53 | – |
| Ten-a | DRSC18924 | 0.518 | -0.377 | – |
| Ten-a | DRSC19496 | -0.0584 | -0.0861 | 2.67 |
| Ten-a | DRSC19700 | 0.476 | 0.201 | -0.000493 |
| Ten-a | DRSC19793 | 0.00765 | -0.118 | 1.71 |
| Ten-a | DRSC19864 | 0.327 | -1.05 | 1.02 |
| Ten-a | DRSC19865 | 1.03 | -0.827 | 0.513 |
| Ten-a | DRSC20290 | -1.97 | 1.09 | 0.0249 |
| Ten-a | DRSC21461 | -1.55 | 1.37 | – |
| Ten-a | DRSC23016 | -3.35 | -1.87 | – |
| CG12128 + CG1407 | DRSC06446 | 0.812 | 1.79 | – |
| CG34149 | DRSC14537 | -0.699 | -1.84 | – |
| Mad | DRSC00759 | -1.09 | -0.232 | – |
| CG10492 | DRSC02064 | 0.539 | – | – |
| uif | DRSC03427 | -1.39 | 1.95 | – |
| CG32830 (retired record) | DRSC01162 | 0.041 | 0.119 | – |
| CG32830 (retired record) | DRSC23151 | 0.893 | -0.904 | – |
| Obp83b | DRSC12360 | -0.249 | -0.685 | – |
| CG18418 | DRSC08535 | -0.931 | 0.578 | – |
| CG8620 | DRSC11020 | -0.455 | -3.74 | – |
| PGS1 | DRSC16304 | 0.566 | 0.667 | – |
| Cyp9b2 | DRSC07390 | 0.309 | 0.0868 | – |
| CG31139 | DRSC21393 | 0.00998 | 1.22 | – |
| betaTry | DRSC07582 | -0.578 | -0.346 | 0.601 |
| betaTry | DRSC22377 | -1.8 | 0.568 | – |
| fz4 | DRSC18780 | -0.277 | -1.82 | – |
| CR32011 + CR32010 + PlexB + 1 more | DRSC21664 | 0.538 | 0.813 | – |
| Herc4 | DRSC08631 | -0.502 | -0.202 | – |
| CG3631 | DRSC15503 | -0.135 | 5.2 | – |
| CG1983 | DRSC15410 | -0.54 | -0.682 | – |
| CG6847 | DRSC19213 | 0.167 | 0.602 | – |
| CG6847 | DRSC20009 | 1.27 | 2.03 | – |
| eIF2Balpha | DRSC16332 | 0.404 | – | – |
| ZnT63C | DRSC08032 | 2.66 | -1.15 | – |
| ZnT63C | DRSC08033 | 1.5 | 1.41 | – |
| ZnT63C | DRSC08519 | 0.532 | -0.582 | – |
| ZnT63C | DRSC21989 | 8.33 | – | – |
| stck | DRSC17070 | -0.356 | -0.663 | – |
| sds22 | DRSC17052 | 0.0212 | 0.77 | – |
| CG6066 | DRSC15959 | 0.616 | -1.07 | – |
| CG6066 | DRSC22228 | 3.55 | -0.247 | – |
| CG11300 | DRSC04104 | -0.846 | 1.13 | – |
| CG12994 | DRSC19514 | 1.31 | -5 | – |
| Gmd | DRSC03119 | 0.763 | 2.16 | – |
| CG42633 | DRSC16061 | 0.294 | 0.0654 | – |
| Nse1 | DRSC02147 | -1.02 | -0.013 | – |

In a second layout: entries from further up
ZnT63C [DRSC21989]
- droplet/nuclear area B-score, replicate 1: 8.33

stck [DRSC17070]
- droplet/nuclear area B-score, replicate 1: -0.356
- droplet/nuclear area B-score, replicate 2: -0.663

sds22 [DRSC17052]
- droplet/nuclear area B-score, replicate 1: 0.0212
- droplet/nuclear area B-score, replicate 2: 0.77

CG6066 [DRSC15959]
- droplet/nuclear area B-score, replicate 1: 0.616
- droplet/nuclear area B-score, replicate 2: -1.07

CG6066 [DRSC22228]
- droplet/nuclear area B-score, replicate 1: 3.55
- droplet/nuclear area B-score, replicate 2: -0.247
